Laboratory results published in article PMC4215257.
These are yes or no findings as the source states them, for the method shown. In cells and extracts the contact can be indirect. Some results given as binding are weak or reduced against the parent protein; the word gives no strength. Where a sequence is shown, tags or fusion partners need not be part of it.

Protein sequences, listed by entry. Tags and fused reporters are not part of them.
UniProt P25205: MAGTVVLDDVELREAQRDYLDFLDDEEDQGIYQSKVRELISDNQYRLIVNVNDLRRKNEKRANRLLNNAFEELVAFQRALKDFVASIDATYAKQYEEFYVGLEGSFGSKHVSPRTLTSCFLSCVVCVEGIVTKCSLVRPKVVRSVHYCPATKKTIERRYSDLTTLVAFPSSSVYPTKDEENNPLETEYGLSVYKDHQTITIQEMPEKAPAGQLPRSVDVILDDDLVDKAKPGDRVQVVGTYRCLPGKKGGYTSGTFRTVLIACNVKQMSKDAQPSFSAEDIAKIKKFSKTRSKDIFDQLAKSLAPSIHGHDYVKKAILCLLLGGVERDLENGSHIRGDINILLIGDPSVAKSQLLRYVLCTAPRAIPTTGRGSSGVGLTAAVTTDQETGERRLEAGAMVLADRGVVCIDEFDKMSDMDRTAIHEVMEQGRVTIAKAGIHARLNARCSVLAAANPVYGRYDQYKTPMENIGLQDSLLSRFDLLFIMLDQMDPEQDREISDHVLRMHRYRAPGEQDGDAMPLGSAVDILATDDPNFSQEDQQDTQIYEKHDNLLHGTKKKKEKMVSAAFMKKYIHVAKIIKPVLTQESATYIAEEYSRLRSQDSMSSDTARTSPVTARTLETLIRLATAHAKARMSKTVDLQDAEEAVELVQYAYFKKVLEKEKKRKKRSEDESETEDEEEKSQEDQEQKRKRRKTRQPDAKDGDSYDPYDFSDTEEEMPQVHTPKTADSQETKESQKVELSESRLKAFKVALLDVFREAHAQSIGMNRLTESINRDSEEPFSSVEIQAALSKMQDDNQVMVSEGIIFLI

Biological target: T1, FLAG-HsGeminin-His6 (wild type) (human) (UniProt O75496)
T1 sequence: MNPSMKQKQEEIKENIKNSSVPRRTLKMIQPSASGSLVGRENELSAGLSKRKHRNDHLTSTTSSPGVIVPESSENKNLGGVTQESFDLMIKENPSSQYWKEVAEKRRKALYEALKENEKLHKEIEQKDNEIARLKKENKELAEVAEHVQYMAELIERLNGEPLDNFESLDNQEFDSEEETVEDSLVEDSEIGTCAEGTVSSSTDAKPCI
Assay: co-IP; extract of Sf9 cells expressing one untagged HsMCM subunit mixed with extract of Sf9 cells expressing Myc-HsCdc6, FLAG-HsCdt1 and/or FLAG-HsGeminin-His6; anti-FLAG or anti-Myc agarose beads, 4 °C, 3 h; PBS plus 1% Triton X-100; washed with PBS; Western blot

binding: binds
Substance: untagged human Mcm3 (from UniProt P25205 1-808)
